# Results published in publication PMC7309457.
# B1: SIRT2 (protein, UniProt Q8IXJ6 1-389)
# chain: MAEPDPSHPLETQAGKVQEAQDSDSDSEGGAAGGEADMDFLRNLFSQTLSLGSQKERLLDELTLEGVARYMQSERCRRVICLVGAGISTSAGIPDFRSPSTGLYDNLEKYHLPYPEAIFEISYFKKHPEPFFALAKELYPGQFKPTICHYFMRLLKDKGLLLRCYTQNIDTLERIAGLEQEDLVEAHGTFYTSHCVSASCRHEYPLSWMKEKIFSEVTPKCEDCQSLVKPDIVFFGESLPARFFSCMQSDFLKVDLLLVMGTSLQVQPFASLISKAPLSTPRLLINKEKAGQSDPFLGMIMGLGGGMDFDSKKAYRDVAWLGECDQGCLALAELLGWKKELEDLVRREHASIDAQSGAGVPNPSTSASPKKSPPPAKDEARTTEREKPQ
# Target: Cyclin-dependent kinase 11 (human (endogenous in HeLa))
# Assay: co-IP; anti-CDK11 (normal rabbit IgG as control) on protein A/G magnetic beads, 2 mg HeLa lysate protein, 1 h at 4 °C; lysis buffer 50 mM Tris-HCl, 150 mM NaCl, 0.5% Triton X-100, 2 mM EDTA pH 8.0; four washes; immunoblot
binder,measurement,value
B1,binding,binds

# Results are given in words; binding and its absence hold for the method and conditions named. Binding seen in cells or lysates may run through a third protein. Binding can be weak; no strength is given.
